Assay results as given in the supplement of paper PMC12819154, “High-throughput peptide-centric local stability assay extends protein–ligand identification to membrane proteins, tissues and bacteria” (Nature Structural & Molecular Biology, 2025).
The other results are listed elsewhere or left out. Small differences around the control level are noise.

Protein sequences, listed by entry. Tags and fused reporters are not part of them. Lines headed by an entry give the natural chain unless they say otherwise; changes in a name come on top.
UniProt Q96PZ0: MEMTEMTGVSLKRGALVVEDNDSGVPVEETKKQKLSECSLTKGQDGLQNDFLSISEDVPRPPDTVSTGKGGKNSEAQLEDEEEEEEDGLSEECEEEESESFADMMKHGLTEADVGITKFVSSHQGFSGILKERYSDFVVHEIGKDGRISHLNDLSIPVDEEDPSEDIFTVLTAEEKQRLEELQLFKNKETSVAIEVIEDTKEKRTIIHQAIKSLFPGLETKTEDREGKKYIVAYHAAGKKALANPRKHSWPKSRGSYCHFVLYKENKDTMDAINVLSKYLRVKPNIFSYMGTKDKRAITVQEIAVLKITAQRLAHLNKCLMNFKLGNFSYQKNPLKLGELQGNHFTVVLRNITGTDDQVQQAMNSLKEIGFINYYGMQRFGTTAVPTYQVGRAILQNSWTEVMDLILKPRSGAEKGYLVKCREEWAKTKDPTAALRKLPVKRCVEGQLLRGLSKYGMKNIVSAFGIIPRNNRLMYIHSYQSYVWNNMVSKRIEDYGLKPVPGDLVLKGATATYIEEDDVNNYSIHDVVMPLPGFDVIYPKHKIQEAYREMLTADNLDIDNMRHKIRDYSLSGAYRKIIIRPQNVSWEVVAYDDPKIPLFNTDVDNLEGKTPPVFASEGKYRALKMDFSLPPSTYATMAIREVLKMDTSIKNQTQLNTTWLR
UniProt Q96NT1: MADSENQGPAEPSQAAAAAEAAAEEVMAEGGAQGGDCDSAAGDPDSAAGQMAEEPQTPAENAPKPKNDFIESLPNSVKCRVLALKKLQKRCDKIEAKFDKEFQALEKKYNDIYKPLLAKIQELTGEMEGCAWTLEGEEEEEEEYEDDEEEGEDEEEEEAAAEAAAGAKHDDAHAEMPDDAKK
UniProt Q96MH7: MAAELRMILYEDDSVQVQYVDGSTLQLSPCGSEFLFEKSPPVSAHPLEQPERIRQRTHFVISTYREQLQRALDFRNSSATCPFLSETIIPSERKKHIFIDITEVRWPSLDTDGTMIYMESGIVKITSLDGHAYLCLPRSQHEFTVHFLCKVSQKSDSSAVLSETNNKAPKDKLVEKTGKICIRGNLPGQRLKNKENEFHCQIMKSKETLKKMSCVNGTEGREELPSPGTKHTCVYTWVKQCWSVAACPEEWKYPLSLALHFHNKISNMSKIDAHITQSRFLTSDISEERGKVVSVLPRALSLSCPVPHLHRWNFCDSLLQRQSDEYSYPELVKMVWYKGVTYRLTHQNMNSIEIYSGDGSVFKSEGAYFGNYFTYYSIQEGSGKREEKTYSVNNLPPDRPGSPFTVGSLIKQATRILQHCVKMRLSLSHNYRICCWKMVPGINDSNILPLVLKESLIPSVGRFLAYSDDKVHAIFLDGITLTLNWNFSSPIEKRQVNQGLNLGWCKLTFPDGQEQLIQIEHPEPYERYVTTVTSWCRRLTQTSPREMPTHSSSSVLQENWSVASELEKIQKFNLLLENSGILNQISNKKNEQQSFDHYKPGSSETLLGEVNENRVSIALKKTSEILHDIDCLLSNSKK
UniProt Q96HR9: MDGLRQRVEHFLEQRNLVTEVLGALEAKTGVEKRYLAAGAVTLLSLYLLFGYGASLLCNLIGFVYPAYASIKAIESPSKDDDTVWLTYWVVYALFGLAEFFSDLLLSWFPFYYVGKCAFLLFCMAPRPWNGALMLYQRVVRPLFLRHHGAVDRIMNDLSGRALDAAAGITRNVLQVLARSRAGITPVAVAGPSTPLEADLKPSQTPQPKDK
UniProt Q96S21: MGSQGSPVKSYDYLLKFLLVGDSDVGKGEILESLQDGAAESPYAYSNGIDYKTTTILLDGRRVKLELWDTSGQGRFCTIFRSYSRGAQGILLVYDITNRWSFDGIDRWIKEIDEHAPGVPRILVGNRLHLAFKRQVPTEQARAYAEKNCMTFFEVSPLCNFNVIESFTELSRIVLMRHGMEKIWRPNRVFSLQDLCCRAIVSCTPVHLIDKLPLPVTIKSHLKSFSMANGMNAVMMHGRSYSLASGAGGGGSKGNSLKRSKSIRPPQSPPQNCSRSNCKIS
UniProt Q96MF7: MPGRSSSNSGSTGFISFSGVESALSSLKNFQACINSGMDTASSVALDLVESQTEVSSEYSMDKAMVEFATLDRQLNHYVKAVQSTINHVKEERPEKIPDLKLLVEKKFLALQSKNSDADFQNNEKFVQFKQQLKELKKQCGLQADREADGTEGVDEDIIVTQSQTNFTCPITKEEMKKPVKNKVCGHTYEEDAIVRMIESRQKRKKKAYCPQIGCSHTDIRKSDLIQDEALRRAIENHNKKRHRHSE
UniProt Q96GV9: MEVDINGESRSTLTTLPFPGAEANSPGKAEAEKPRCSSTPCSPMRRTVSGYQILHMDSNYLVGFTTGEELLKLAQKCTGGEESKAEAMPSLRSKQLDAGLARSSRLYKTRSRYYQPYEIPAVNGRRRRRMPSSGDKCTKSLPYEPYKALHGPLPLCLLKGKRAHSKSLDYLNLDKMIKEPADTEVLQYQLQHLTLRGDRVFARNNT
UniProt Q96GX5: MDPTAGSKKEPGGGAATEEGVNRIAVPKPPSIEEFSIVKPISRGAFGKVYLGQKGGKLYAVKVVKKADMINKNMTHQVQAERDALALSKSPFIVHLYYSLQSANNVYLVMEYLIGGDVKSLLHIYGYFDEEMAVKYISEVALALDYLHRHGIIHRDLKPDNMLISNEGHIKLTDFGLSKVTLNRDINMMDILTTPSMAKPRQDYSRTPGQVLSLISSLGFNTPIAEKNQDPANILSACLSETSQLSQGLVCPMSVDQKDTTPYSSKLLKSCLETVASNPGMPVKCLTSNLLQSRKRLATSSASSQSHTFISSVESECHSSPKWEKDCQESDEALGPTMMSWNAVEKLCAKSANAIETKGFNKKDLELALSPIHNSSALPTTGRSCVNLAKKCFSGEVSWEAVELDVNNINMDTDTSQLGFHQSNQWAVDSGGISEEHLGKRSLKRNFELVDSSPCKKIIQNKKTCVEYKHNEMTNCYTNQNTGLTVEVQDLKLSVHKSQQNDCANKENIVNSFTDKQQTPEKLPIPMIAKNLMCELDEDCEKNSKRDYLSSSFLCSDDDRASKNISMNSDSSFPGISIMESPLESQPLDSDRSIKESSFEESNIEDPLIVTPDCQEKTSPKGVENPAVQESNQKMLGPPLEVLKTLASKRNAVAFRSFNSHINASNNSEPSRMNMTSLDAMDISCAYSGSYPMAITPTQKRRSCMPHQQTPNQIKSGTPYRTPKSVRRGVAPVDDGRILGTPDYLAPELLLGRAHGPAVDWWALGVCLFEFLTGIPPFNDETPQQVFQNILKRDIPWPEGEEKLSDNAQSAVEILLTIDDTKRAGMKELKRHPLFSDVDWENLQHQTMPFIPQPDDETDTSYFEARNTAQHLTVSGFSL
UniProt Q96Q05, whole entry: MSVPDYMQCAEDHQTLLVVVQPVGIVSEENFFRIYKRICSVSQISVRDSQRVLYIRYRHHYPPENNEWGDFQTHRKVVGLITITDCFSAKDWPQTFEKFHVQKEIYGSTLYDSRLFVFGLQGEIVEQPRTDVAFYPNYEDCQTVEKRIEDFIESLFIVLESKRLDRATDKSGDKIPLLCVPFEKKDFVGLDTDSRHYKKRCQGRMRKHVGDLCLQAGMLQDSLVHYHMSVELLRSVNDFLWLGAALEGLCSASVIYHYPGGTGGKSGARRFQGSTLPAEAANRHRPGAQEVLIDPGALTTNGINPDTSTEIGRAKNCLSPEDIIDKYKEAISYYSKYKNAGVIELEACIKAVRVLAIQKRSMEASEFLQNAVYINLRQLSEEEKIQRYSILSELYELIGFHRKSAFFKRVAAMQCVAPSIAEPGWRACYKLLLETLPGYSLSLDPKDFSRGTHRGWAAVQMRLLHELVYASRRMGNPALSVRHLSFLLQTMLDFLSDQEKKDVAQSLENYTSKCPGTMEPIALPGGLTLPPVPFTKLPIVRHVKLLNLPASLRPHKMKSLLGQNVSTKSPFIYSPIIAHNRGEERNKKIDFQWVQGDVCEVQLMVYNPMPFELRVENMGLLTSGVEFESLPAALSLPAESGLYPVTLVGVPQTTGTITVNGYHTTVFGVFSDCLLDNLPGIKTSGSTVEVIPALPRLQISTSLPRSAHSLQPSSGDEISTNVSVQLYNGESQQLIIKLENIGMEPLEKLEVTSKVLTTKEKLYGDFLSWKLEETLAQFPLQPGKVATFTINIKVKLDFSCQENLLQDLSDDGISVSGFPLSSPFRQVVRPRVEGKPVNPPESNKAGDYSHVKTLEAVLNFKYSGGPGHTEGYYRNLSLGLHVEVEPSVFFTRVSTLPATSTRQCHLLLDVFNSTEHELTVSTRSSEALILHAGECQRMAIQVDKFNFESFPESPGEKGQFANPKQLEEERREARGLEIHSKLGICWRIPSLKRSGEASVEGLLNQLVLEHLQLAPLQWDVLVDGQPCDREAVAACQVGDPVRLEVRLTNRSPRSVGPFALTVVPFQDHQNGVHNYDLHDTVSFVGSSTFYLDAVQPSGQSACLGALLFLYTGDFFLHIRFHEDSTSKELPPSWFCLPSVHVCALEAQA
UniProt Q96I24: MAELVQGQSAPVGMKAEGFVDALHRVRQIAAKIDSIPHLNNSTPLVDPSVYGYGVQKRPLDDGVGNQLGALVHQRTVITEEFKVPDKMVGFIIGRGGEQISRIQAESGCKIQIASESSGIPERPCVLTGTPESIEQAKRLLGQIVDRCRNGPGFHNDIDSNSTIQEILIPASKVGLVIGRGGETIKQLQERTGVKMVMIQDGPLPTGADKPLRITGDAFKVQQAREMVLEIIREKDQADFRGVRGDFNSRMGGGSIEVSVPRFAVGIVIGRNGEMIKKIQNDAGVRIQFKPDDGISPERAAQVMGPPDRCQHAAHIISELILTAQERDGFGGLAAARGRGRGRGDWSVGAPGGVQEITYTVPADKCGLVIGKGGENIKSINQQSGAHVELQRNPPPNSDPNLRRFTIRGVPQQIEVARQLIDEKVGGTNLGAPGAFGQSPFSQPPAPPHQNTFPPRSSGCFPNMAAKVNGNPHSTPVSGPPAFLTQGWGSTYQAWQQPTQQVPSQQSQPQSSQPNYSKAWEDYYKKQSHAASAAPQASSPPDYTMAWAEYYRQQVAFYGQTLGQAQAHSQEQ
UniProt Q96HS1, whole entry: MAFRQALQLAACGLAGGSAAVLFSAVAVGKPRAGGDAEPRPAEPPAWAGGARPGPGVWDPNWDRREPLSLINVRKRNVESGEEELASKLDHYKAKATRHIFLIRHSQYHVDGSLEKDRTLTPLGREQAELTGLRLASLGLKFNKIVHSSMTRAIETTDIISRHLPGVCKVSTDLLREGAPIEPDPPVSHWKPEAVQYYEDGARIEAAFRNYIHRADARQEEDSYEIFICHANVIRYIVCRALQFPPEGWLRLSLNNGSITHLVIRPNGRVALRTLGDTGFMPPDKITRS
UniProt Q96IT1: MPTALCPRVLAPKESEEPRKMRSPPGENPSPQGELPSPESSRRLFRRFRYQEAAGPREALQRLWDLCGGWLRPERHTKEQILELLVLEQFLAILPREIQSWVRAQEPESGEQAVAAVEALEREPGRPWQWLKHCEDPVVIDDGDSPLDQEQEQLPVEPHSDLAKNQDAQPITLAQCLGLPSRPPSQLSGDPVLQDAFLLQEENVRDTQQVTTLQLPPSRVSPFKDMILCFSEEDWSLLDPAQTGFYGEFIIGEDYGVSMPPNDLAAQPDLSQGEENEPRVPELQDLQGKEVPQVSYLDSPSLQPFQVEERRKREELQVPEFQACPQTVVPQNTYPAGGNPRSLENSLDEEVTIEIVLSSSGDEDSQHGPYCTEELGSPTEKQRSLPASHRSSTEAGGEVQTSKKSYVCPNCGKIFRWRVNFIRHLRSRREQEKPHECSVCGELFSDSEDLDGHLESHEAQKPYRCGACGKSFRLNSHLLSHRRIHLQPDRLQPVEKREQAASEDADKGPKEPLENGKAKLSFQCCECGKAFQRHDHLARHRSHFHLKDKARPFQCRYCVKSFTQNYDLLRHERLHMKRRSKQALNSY
UniProt Q96QD5: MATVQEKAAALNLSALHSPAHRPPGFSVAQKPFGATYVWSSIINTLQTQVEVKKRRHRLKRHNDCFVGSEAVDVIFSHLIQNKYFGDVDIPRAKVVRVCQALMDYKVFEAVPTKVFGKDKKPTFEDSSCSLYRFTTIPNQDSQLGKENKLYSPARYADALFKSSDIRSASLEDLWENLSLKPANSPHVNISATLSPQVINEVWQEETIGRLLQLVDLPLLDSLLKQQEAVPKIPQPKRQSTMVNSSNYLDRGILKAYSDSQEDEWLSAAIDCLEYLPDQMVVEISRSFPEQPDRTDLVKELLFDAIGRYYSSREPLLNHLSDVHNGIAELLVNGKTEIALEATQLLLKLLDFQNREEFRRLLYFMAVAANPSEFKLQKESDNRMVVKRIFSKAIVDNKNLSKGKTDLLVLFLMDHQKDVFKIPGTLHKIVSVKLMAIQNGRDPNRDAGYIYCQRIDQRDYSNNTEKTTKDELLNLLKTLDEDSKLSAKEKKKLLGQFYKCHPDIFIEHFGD

Compound: Cc1nc(Nc2ncc(C(=O)Nc3c(C)cccc3Cl)s2)cc(N2CCN(CCO)CC2)n1 [dasatinib]
Assay: log2 fold change of tryptic peptide abundance, ligand vs vehicle (limited proteolysis) (log2 ratio); higher = more trypsin-susceptible (destabilized)
Conditions: ligand concentration: 5 uM; sample: K562 cleared lysate

Q: For “PASK (peptide sequence: HGSGLDLFAFIDRHPR, peptide start residue: 1084) (UniProt Q96RG2)”, which log2 fold change is on record?
A: -0.32

Q: With “PUS7 (peptide sequence: AITVQEIAVLK, peptide start residue: 297) (UniProt Q96PZ0)” as the target, how does the log2 fold change read?
A: -0.351

Q: Which log2 fold change does the source give for “ZNF668 (peptide sequence: GHTGERPYACADCGK, peptide start residue: 161) (UniProt Q96K58)” here?
A: -0.508

Q: How did the log2 fold change turn out when “RBM17 (peptide sequence: IFLEFER, peptide start residue: 355) (UniProt Q96I25)” was run?
A: -0.259

Q: Which log2 fold change does the source give for “LIN37 (peptide sequence: LDEEAGKTPSDTHNKDCSIAATGK, peptide start residue: 40) (UniProt Q96GY3)” here?
A: 0.282

Q: With “CAPNS2 (peptide sequence: LGFEEFK, peptide start residue: 159) (UniProt Q96L46)” as the target, how does the log2 fold change read?
A: -0.092

Q: With “NAP1L5 (peptide sequence: FDKEFQALEKK, peptide start residue: 98) (UniProt Q96NT1)” as the target, how does the log2 fold change read?
A: 0.159

Q: “C5orf34 (peptide sequence: GKVVSVLPR, peptide start residue: 290) (UniProt Q96MH7)” was tested. Which log2 fold change did it give?
A: -0.598

Q: “REEP6 (peptide sequence: QRVEHFLEQR, peptide start residue: 6) (UniProt Q96HR9)” was tested. Which log2 fold change did it give?
A: 0.0589

Q: With “INPP4A (peptide sequence: LNSYFEQFK, peptide start residue: 830) (UniProt Q96PE3)” as the target, how does the log2 fold change read?
A: -0.411

Q: With “RAB40C (peptide sequence: SIRPPQSPPQNCSR, peptide start residue: 262) (UniProt Q96S21)” as the target, how does the log2 fold change read?
A: 0.442

Q: With “UniProt Q96L50 (peptide sequence: GKGVRAVLSLCQQTSR, peptide start residue: 23)” as the target, how does the log2 fold change read?
A: -0.321

Q: How did the log2 fold change turn out when “EDC3 (peptide sequence: YRHDENILESEPIVYRR, peptide start residue: 244) (UniProt Q96F86)” was run?
A: -0.172

Q: With “LTV1 (peptide sequence: AIADHLFWSEETK, peptide start residue: 225) (UniProt Q96GA3)” as the target, how does the log2 fold change read?
A: -0.0811

Q: Which log2 fold change does the source give for “SIPA1 (peptide sequence: AHSHEEASRPAATSTR, peptide start residue: 72) (UniProt Q96FS4)” here?
A: -0.0975

Q: Which log2 fold change does the source give for “NSMCE2 (peptide sequence: NKVCGHTYEEDAIVR, peptide start residue: 182) (UniProt Q96MF7)” here?
A: 0.186

Q: With “C5orf30 (peptide sequence: MIKEPADTEVLQYQLQHLTLR, peptide start residue: 176) (UniProt Q96GV9)” as the target, how does the log2 fold change read?
A: -0.484

Q: How did the log2 fold change turn out when “MASTL (peptide sequence: NFELVDSSPCK, peptide start residue: 446) (UniProt Q96GX5)” was run?
A: 0.778

Q: How did the log2 fold change turn out when “FYTTD1 (peptide sequence: QATFLFR, peptide start residue: 188) (UniProt Q96QD9)” was run?
A: 0.111

Q: How did the log2 fold change turn out when “UniProt Q96Q05 (peptide sequence: RFQGSTLPAEAANR, peptide start residue: 270)” was run?
A: 0.0725

Q: For “SPAG5 (peptide sequence: RSPACSSLTPSLCK, peptide start residue: 42) (UniProt Q96R06)”, which log2 fold change is on record?
A: -0.462

Q: Which log2 fold change does the source give for “FUBP3 (peptide sequence: AEGFVDALHR, peptide start residue: 16) (UniProt Q96I24)” here?
A: -0.161

Q: “PGAM5 (peptide sequence: NVESGEEELASK, peptide start residue: 77) (UniProt Q96HS1)” was tested. Which log2 fold change did it give?
A: -0.0606

Q: For “UniProt Q96IT1 (peptide sequence: IHLQPDRLQPVEKR, peptide start residue: 484)”, which log2 fold change is on record?
A: 0.457

Q: How did the log2 fold change turn out when “UniProt Q96MP5 (peptide sequence: VASPGGDTTGK, peptide start residue: 107)” was run?
A: -0.0279

Q: “DEPDC7 (peptide sequence: DAGYIYCQR, peptide start residue: 446) (UniProt Q96QD5)” was tested. Which log2 fold change did it give?
A: 0.202
